Laboratory results: PubChem BioAssay AID686943 (Drosophila RNAi Screening Center, 2013)

Test: 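Knockdowns that increase or decrease active ERK after insulin receptor stimulation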 (primary screen)
Cells: Drosophila S2R+ haemocyte-like cells expressing YFP-tagged ERK (Rolled)
Reagents: long dsRNA against Drosophila genes
Challenge: insulin stimulation versus unstimulated cells; dose and duration not given
Measured: 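Antibody staining for doubly phosphorylated ERK divided by ERK-YFP signal, as plate z-scores, in insulin-treated and untreated cells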
Scale: replicate 1, z-score of dpERK with insulin and replicate 2, z-score of dpERK with insulin: higher = more active ERK per ERK-YFP after insulin; replicate 1, z-score of dpERK under basal conditions: higher = more basal active ERK per ERK-YFP; replicate 1, z-score of ERK-YFP with insulin: higher = more YFP-tagged ERK signal
The screen tested about 23,000 reagents; this is an unselected part of those that have a named target and a result. 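Extra replicates exist only for a retested subset of genes; insulin dose and duration not given; both raised and lowered dpERK matter.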 A plus sign joins genes that one reagent is predicted to hit. The record does not give: the amount of reagent, the time to read-out.

| replicate 1, z-score of dpERK with insulin | replicate 2, z-score of dpERK with insulin | replicate 1, z-score of dpERK under basal conditions | replicate 1, z-score of ERK-YFP with insulin | Gene | amplicon |
| --- | --- | --- | --- | --- | --- |
| -0.12 | -0.41 | -0.32 | -0.01 | nemy | DRSC05357 |
| -0.29 | 0.71 | 0.39 | -0.34 | nemy | DRSC07262 |
| 0.62 | 0.73 | 0.41 | 1.2 | lncRNA:iab8 | DRSC13187 |
| -2.98 | 0.31 | -0.87 | 1.34 | lncRNA:iab8 | DRSC22252 |
| 1.1 | 0.25 | -0.63 | -1.38 | Tgt | DRSC00672 |
| -0.36 | -0.4 | 0.01 | 0.68 | Marcal1 | DRSC02718 |
| 0.86 | 1.44 | 0.33 | 0.62 | vimar | DRSC05026 |
| 0.03 | 0.26 | 0.6 | 0.41 | CG17666 | DRSC10276 |
| 0.51 | 1.12 | -0.16 | -0.19 | Pax | DRSC01703 |
| 0.45 | 0.04 | 0.78 | 1 | Pax | DRSC02651 |
| -0.45 | -0.81 | 1 | 0.65 | Pax | DRSC02652 |
| 1.35 | 0.25 | 0.11 | -0.37 | Eb1 | DRSC05016 |
| 0.85 | 0.03 | -1.4 | 0.71 | CG9727 | DRSC12585 |
| 0.75 | 0.6 | -0.45 | 0.18 | CG15357 | DRSC00387 |
| 2.05 | -0.1 | -0.38 | -0.65 | CR18275 + CR18166 + CG32817 | DRSC17249 |
| 0.95 | 0.23 | 0.2 | -0.05 | CG12010 | DRSC08218 |
| -0.37 | 0.15 | 1 | 0.1 | wal | DRSC07717 |
| 0.31 | -0.24 | -0.57 | -0.25 | CG13051 | DRSC09932 |
| 0.38 | -0.05 | 1.13 | -0.24 | mmm | DRSC10208 |
| -0.2 | -0.11 | 0.13 | 0.89 | CG1273 | DRSC08291 |
| 0 | -0.18 | -0.58 | 0.61 | CG2247 | DRSC19844 |
| 0.47 | 0.36 | 0.41 | 0.47 | Mipp2 | DRSC18682 |
| -0.44 | 0.33 | -0.78 | 1.37 | Tom40 | DRSC18796 |
| 0.13 | -0.79 | 1.46 | -0.61 | pav | DRSC08730 |
| 0.5 | 1.57 | 0.68 | -0.17 | GlyT | DRSC04512 |
| -0.95 | -0.4 | 0.3 | -0.44 | Ir94a | DRSC13538 |
| -0.2 | 0.09 | -0.24 | 0.51 | CG9257 | DRSC03173 |
| -0.25 | 0 | 1.1 | 0.43 | Tom7 | DRSC05135 |
| -0.25 | 0.03 | 0.8 | 0.71 | Tom7 | DRSC07113 |
| 0.48 | -0.33 | -0.42 | -1.44 | CG10252 | DRSC14221 |
| -0.3 | -0.57 | 0.77 | -0.87 | Tnpo-SR | DRSC00546 |
| -0.04 | 0.25 | -0.34 | 0.44 | Cyp9b2 | DRSC07390 |
| -1.9 | -2 | -1.73 | -0.41 | Myo10A | DRSC19758 |
| -0.57 | 0.16 | -0.19 | 1.62 | Myo10A | DRSC19834 |
| -0.01 | 0.2 | -0.02 | 0.4 | Myo10A | DRSC19837 |
| -2.7 | -3.27 | -1.19 | 1.04 | CG34232 | DRSC05332 |
| 0.87 | 0.55 | – | 0.14 | CG7548 | DRSC10874 |
| 0.06 | -0.48 | -0.3 | 0.54 | Or22b | DRSC00765 |
| -0.14 | 0.79 | 1.77 | 0.49 | Eig71Eb | DRSC11149 |
| -0.76 | -0.55 | -1.04 | 0.67 | Calx | DRSC13457 |
| 0.57 | -4.43 | -0.25 | 0.23 | Calx | DRSC13459 |
| 0.58 | -0.34 | -0.2 | 0.17 | Calx | DRSC16599 |
| -0.35 | 0.06 | 0.88 | -0.68 | Calx | DRSC21850 |
| 0.6 | -0.06 | 0.47 | 0.01 | CG10359 | DRSC08156 |
| -0.84 | -0.33 | -0.33 | 0.85 | CG12147 | DRSC12192 |
| -0.37 | 0.06 | -0.18 | -0.06 | per | DRSC18818 |
| 0.01 | 0.28 | 0.12 | 0.9 | Gpxl | DRSC06538 |
| -0.16 | 0.6 | 0.84 | 0.05 | thetaTry | DRSC07705 |
| -0.2 | -0.12 | 0.92 | -0.18 | CG12128 + CG1407 | DRSC06446 |
| 0.22 | 0.41 | -0.28 | -1.24 | CG14785 | DRSC18604 |
| -6.5 | -5.13 | -0.29 | 0.05 | cnk | DRSC07595 |
| 0.29 | -0.6 | -0.14 | 0.29 | CG34221 | DRSC06150 |
| -0.08 | 0.38 | 0.18 | -1.3 | Afg3l2 | DRSC10657 |
| -1.17 | -1.46 | 0.57 | 0.21 | CG9107 | DRSC03138 |
| -0.95 | -1.88 | -0.13 | 0.06 | CG34297 | DRSC12410 |
| 0.27 | 0.46 | -0.72 | -0.09 | CG7798 | DRSC07047 |
| 0.18 | 0.16 | 1.13 | 0.18 | Cds | DRSC10938 |

In a second layout: entries from further up
Pax [DRSC02652]
- replicate 1, z-score of dpERK with insulin: -0.45
- replicate 2, z-score of dpERK with insulin: -0.81
- replicate 1, z-score of dpERK under basal conditions: 1
- replicate 1, z-score of ERK-YFP with insulin: 0.65

Eb1 [DRSC05016]
- replicate 1, z-score of dpERK with insulin: 1.35
- replicate 2, z-score of dpERK with insulin: 0.25
- replicate 1, z-score of dpERK under basal conditions: 0.11
- replicate 1, z-score of ERK-YFP with insulin: -0.37

CG9727 [DRSC12585]
- replicate 1, z-score of dpERK with insulin: 0.85
- replicate 2, z-score of dpERK with insulin: 0.03
- replicate 1, z-score of dpERK under basal conditions: -1.4
- replicate 1, z-score of ERK-YFP with insulin: 0.71

CG15357 [DRSC00387]
- replicate 1, z-score of dpERK with insulin: 0.75
- replicate 2, z-score of dpERK with insulin: 0.6
- replicate 1, z-score of dpERK under basal conditions: -0.45
- replicate 1, z-score of ERK-YFP with insulin: 0.18

CR18275 + CR18166 + CG32817 [DRSC17249]
- replicate 1, z-score of dpERK with insulin: 2.05
- replicate 2, z-score of dpERK with insulin: -0.1
- replicate 1, z-score of dpERK under basal conditions: -0.38
- replicate 1, z-score of ERK-YFP with insulin: -0.65

CG12010 [DRSC08218]
- replicate 1, z-score of dpERK with insulin: 0.95
- replicate 2, z-score of dpERK with insulin: 0.23
- replicate 1, z-score of dpERK under basal conditions: 0.2
- replicate 1, z-score of ERK-YFP with insulin: -0.05

wal [DRSC07717]
- replicate 1, z-score of dpERK with insulin: -0.37
- replicate 2, z-score of dpERK with insulin: 0.15
- replicate 1, z-score of dpERK under basal conditions: 1
- replicate 1, z-score of ERK-YFP with insulin: 0.1

CG13051 [DRSC09932]
- replicate 1, z-score of dpERK with insulin: 0.31
- replicate 2, z-score of dpERK with insulin: -0.24
- replicate 1, z-score of dpERK under basal conditions: -0.57
- replicate 1, z-score of ERK-YFP with insulin: -0.25

mmm [DRSC10208]
- replicate 1, z-score of dpERK with insulin: 0.38
- replicate 2, z-score of dpERK with insulin: -0.05
- replicate 1, z-score of dpERK under basal conditions: 1.13
- replicate 1, z-score of ERK-YFP with insulin: -0.24

CG1273 [DRSC08291]
- replicate 1, z-score of dpERK with insulin: -0.2
- replicate 2, z-score of dpERK with insulin: -0.11
- replicate 1, z-score of dpERK under basal conditions: 0.13
- replicate 1, z-score of ERK-YFP with insulin: 0.89
